We go through two substances from article PMC5793433.

Chains of the proteins cited; added tags and fusions are not shown. Lines headed by an entry give the natural chain unless they say otherwise; changes in a name come on top.
UniProt U6KRN1: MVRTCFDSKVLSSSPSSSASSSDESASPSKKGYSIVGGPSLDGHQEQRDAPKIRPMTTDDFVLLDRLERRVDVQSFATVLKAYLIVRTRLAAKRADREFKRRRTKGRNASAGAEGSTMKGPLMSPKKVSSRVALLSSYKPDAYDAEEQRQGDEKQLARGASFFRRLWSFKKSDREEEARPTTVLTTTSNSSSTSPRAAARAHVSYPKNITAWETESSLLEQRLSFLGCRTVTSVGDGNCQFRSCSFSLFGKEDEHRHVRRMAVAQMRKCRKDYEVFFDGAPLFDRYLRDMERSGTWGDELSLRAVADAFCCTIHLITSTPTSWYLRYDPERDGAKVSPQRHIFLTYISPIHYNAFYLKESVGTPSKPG
UniProt A0A0A7DRF5: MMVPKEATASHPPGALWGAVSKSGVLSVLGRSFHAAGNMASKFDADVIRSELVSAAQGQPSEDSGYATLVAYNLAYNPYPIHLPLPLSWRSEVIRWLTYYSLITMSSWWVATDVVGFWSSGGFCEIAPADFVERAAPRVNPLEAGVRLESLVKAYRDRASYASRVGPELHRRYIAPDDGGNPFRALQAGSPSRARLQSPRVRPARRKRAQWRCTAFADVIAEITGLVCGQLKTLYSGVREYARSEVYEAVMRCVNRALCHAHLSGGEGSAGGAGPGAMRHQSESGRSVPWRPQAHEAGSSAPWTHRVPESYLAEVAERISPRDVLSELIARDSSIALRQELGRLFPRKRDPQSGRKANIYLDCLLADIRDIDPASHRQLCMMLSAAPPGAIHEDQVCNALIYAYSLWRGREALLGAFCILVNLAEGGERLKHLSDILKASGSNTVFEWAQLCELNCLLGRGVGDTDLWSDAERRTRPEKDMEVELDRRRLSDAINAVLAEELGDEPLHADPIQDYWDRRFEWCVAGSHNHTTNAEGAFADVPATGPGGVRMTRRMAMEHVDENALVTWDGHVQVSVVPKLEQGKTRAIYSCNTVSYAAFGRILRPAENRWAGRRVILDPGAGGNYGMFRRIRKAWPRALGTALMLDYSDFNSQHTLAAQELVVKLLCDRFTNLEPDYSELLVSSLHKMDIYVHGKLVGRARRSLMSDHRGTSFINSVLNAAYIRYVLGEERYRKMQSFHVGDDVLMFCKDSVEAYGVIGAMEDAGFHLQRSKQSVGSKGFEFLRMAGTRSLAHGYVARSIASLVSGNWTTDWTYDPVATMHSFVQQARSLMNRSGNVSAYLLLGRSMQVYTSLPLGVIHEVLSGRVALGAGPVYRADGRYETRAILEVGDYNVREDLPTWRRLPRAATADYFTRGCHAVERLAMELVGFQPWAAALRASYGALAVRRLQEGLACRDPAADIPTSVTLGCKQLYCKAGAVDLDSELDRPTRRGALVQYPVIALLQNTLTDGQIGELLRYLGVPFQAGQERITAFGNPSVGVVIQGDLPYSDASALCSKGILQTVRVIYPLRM

Results are given in words; binding and its absence hold for the method and conditions named. Binding seen in cells or lysates may run through a third protein. A result given as binding can be weak or reduced; the word gives no strength.

In experiment [1] the target is Hexa-His-tagged Etv-RDRP protein (Eimeria tenella RNA virus 1 (Etv)). Put plainly: co-IP; Sf9 cells co-infected with baculoviruses for GST-OTU and His-RDRP, 48 h; lysate precipitated with anti-GST or with anti-His and protein A beads; washes with 500 mM NaCl, 1% NP40; Western blot with anti-GST and anti-His. For orientation: In western blotting, separated proteins are transferred to a membrane and probed.

The target in experiment [2] is GST-Et-OTU fusion protein (Eimeria tenella) (UniProt U6KRN1). Put plainly: pull-down; GST-OTU-Hexa-tagged-RDRP protein complex purified with glutathione-Sepharose 4B and analysed by Western blot.
Experiment [3] shares this target. The experiment in a line: pull-down; purified GST-OTU on glutathione-Sepharose 4B beads; Hexa-His-tagged Etv-RDRP added, 4 °C for 4 h in lysis buffer (10 mM Tris-HCl pH 7.5, 150 mM NaCl, 1 mM EDTA, NP-40); washed with PBS; Western blot with anti-His.
Experiment [4] shares this target. Put plainly: co-IP; Sf9 cells co-infected with baculoviruses for GST-OTU and His-RDRP, 48 h; lysate precipitated with anti-GST or with anti-His and protein A beads; washes with 500 mM NaCl, 1% NP40; Western blot with anti-GST and anti-His.

For “GST-Et-OTU fusion protein (from UniProt U6KRN1) (enzyme)”, the binding result in experiment [1] is recorded as “binds”.

As to “Hexa-His-tagged Etv-RDRP protein (from UniProt A0A0A7DRF5)”, the binding result in experiment [2], in experiment [3] and in experiment [4] was “binds” in each case.
